PubChem BioAssay AID1224830 | NIAID – 2016

Test: 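Host factors that control LPS-induced TNF expression in human macrophages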 (primary screen)
System: human THP-1 monocytic leukaemia cells, TNF dual-luciferase reporter clone, PMA-differentiated to macrophage-like cells
Knock-down reagent: siRNA pool against human genes, 50 nM
Duration: LPS for 4 h, given about 3 days after siRNA transfection
Conditions: bacterial LPS (TLR4 ligand), 10 ng/ml
Detection: 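Ratio of firefly to renilla light, scaled to the plate median and expressed as a robust z-score per replicate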
Direction: TNF reporter robust z-score: higher = stronger TNF reporter response to LPS
Call rule: 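a well is active when its z-score exceeds 2.8 or falls below -1.5; control wells carry no call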
In all, the deposit lists about 18,000 reagents; below is a random part of them. About 2,900 of all reagents (16%) were called active. 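Calls are made per well; low scores hint the gene aids the LPS response, high scores that it dampens it.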 Repeated entries: four replicate wells of each siRNA pool.

TNF reporter robust z-score | outcome | Gene
-1.09 | inactive | KIAA0232
-0.67 | inactive | KIAA0232
-0.91 | inactive | KIAA0232
-1.35 | inactive | KIAA0232
0.97 | inactive | VN1R5
1.47 | inactive | VN1R5
1.32 | inactive | VN1R5
0.93 | inactive | VN1R5
-0.86 | inactive | CHCHD10
-0.73 | inactive | CHCHD10
-1.24 | inactive | CHCHD10
-1.02 | inactive | CHCHD10
-0.02 | inactive | TRIM29
0.07 | inactive | TRIM29
1.47 | inactive | TRIM29
-0.26 | inactive | TRIM29
0.96 | inactive | C8orf82
1.37 | inactive | C8orf82
1.28 | inactive | C8orf82
0.89 | inactive | C8orf82
0.43 | inactive | MGAT4D
0.93 | inactive | MGAT4D
1.63 | inactive | MGAT4D
2.59 | inactive | MGAT4D
-0.51 | inactive | CCDC8
0.88 | inactive | CCDC8
-0.67 | inactive | CCDC8
0.58 | inactive | LINC02903
0 | inactive | LINC02903
0.55 | inactive | LINC02903
-0.76 | inactive | LINC02903
0.01 | inactive | ADCY10
1.46 | inactive | ADCY10
0.62 | inactive | ADCY10
2.31 | inactive | ADCY10
-1.08 | inactive | OR6C76
-0.36 | inactive | OR6C76
0.15 | inactive | OR6C76
-0.46 | inactive | OR6C76
-1.26 | inactive | PCNA
-1.05 | inactive | PCNA
-1.1 | inactive | PCNA
-1.4 | inactive | PCNA
0.39 | inactive | SYNJ2
1.22 | inactive | SYNJ2
0.3 | inactive | SYNJ2
1.79 | inactive | SYNJ2

Next records follow:
TNF reporter robust z-score | outcome | Gene
1.85 | inactive | HTATIP2
0.04 | inactive | HTATIP2
0.22 | inactive | HTATIP2
1.45 | inactive | HTATIP2
-0.04 | inactive | RBM22
-0.22 | inactive | RBM22
0.66 | inactive | RBM22
0.74 | inactive | RBM22
-0.9 | inactive | AGBL3
1.29 | inactive | AGBL3
0.45 | inactive | AGBL3
0.85 | inactive | AGBL3
-0.56 | inactive | PHKG1
0.18 | inactive | PHKG1
-0.57 | inactive | PHKG1
0.01 | inactive | PHKG1
-0.8 | inactive | SYK
-0.58 | inactive | SYK
-0.79 | inactive | SYK
0.1 | inactive | SYK
-0.06 | inactive | CA12
-0.08 | inactive | CA12
0.36 | inactive | CA12
-0.49 | inactive | CA12
0.28 | inactive | SLC13A1
2.38 | inactive | SLC13A1
0.49 | inactive | SLC13A1
0.4 | inactive | SLC13A1
-0.17 | inactive | TNNT3
0.22 | inactive | TNNT3
0.78 | inactive | TNNT3
-0.27 | inactive | TNNT3
2.81 | active | TMEM254
2.36 | inactive | TMEM254
0.93 | inactive | TMEM254
0.16 | inactive | TMEM254
1.18 | inactive | CD160
-0.37 | inactive | CD160
0.93 | inactive | CD160
2.11 | inactive | CD160
0.96 | inactive | SLFN13
0.33 | inactive | SLFN13
0.85 | inactive | SLFN13
0.8 | inactive | DDX50
0.61 | inactive | DDX50
0 | inactive | DDX50
0.38 | inactive | DDX50
-0.82 | inactive | MAGEB10
-0.39 | inactive | MAGEB10
-0.81 | inactive | MAGEB10
-0.56 | inactive | MAGEB10
-0.06 | inactive | BOLA1
-1.13 | inactive | BOLA1
0.62 | inactive | BOLA1
0.96 | inactive | BOLA1
0.24 | inactive | CNTNAP4
1.47 | inactive | CNTNAP4
0.63 | inactive | CNTNAP4
1.66 | inactive | CNTNAP4
-0.88 | inactive | ACER1
-0.52 | inactive | ACER1
-0.97 | inactive | ACER1
-1.48 | inactive | ACER1
-1.29 | inactive | PPP1R3F
-0.91 | inactive | PPP1R3F
-0.87 | inactive | PPP1R3F
-1.11 | inactive | PPP1R3F
1.01 | inactive | FMO2
1.65 | inactive | FMO2
1.42 | inactive | FMO2
1.28 | inactive | FMO2
0.75 | inactive | SERPINA11
1.02 | inactive | SERPINA11
0.81 | inactive | SERPINA11
-0.21 | inactive | SERPINA11
0.63 | inactive | ACY3
0.31 | inactive | ACY3
-0.26 | inactive | ACY3
0.11 | inactive | ACY3
-0.07 | inactive | CGAS
0.24 | inactive | CGAS
-0.25 | inactive | CGAS
-0.6 | inactive | CGAS
1.47 | inactive | ITGB2
2.93 | active | ITGB2
2.36 | inactive | ITGB2
1.91 | inactive | ITGB2
-1.82 | active | RPP25
-1.39 | inactive | RPP25
-1.37 | inactive | RPP25
-1.32 | inactive | RPP25
-0.62 | inactive | MIDN
0.97 | inactive | MIDN
0.03 | inactive | MIDN
0.46 | inactive | MIDN
